# In patent US10561629B2, “Food containing glycine and use thereof” (AJINOMOTO CO., INC., priority 2004, dated 2020):
# Read-outs that look alike come from different tables or passages of the source.
# Conditions: 2 g glycine per serving, five test participants
compound,measurement,setting,value
"NCC(=O)O [glycine, Glycine]","Masking effect present, preferable effect",Eucommia ulmoides blend tea,4 person
same,"Masking effect present, unpreferable effect",Eucommia ulmoides blend tea,0 person
same,No masking effect,Eucommia ulmoides blend tea,1 person
same,"Masking effect present, preferable effect",Korean ginseng blend tea,3 person
same,"Masking effect present, unpreferable effect",Korean ginseng blend tea,0 person
same,No masking effect,Korean ginseng blend tea,2 person
same,"Masking effect present, preferable effect",Puer blend tea,1 person
same,"Masking effect present, unpreferable effect",Puer blend tea,2 person
same,No masking effect,Puer blend tea,2 person
